PubChem BioAssay AID720505, Drosophila RNAi Screening Center, 2013

Screen: 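Fly regulators or components of the CRAC channel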 (primary screen)
Cells: Drosophila S2R+ cells
Reagent: long dsRNA against Drosophila genes
Treatment: thapsigargin (2 µM) in calcium-free buffer to empty internal stores, then 2 mM calcium added back
Measured: 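Stores emptied by 2 µM thapsigargin without calcium, then 2 mM calcium re-added; fluo-4 fluorescence followed by FLIPR in 384-well plates, per-well averaged endpoint, raw; two screen passes, some wells retested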
Direction: calcium signal and retest calcium signal: higher = more calcium entry after store depletion
Active means: 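Knock-downs counted as hits when calcium entry dropped relative to STIM1 positive and Rho1 negative controls present on each plate; roughly 1500 genes called, with reductions of differing size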
Meaning of the calls: active = called as lowering calcium entry; inactive = not called
The deposit covers about 20,000 reagents; below is a random part of those that have a named target and a result. Of all reagents, about 2,100 (10%) are marked active. 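Raw plate signals without normalisation; calls rest on control-based scores that were not deposited; replicate 2 separates called from uncalled poorly.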 No sequences are given here. Not given: the amount of reagent, the time to read-out.

Gene	dsRNA	calcium signal, replicate 1	calcium signal, replicate 2	retest calcium signal, replicate 1	retest calcium signal, replicate 2	call
slv (saliva)	DRSC07685	64.9	77.2			active
CG40583 (retired record)	DRSC20938	50.9	14370			active
Ir56c (Ionotropic receptor 56c)	DRSC06544	181	120			inactive
Bace (beta-site APP-cleaving enzyme)	DRSC02197	91.3	99.3			inactive
CG6695	DRSC16098	210	243			inactive
CG5986	DRSC15931	119	262			inactive
ppk19 (pickpocket 19)	DRSC15321	139	105			inactive
east (enhanced adult sensory threshold)	DRSC18770	136	134			inactive
Arfip (Arfaptin)	DRSC15179	74.7	138			active
CG10576	DRSC09745	74.5	106			active
CG9967	DRSC00742	88.3	140	86.9	117	inactive
CG13135	DRSC02232	99.6	98			inactive
YME1L (YME1 like ATPase)	DRSC04378	202	86.2			inactive
CG13160	DRSC06284	158	172			inactive
CG7924	DRSC10931	71.6	149			active
Mau2	DRSC15550	150	148			inactive
CG3706	DRSC18649	122	142			inactive
up (upheld)	DRSC20382	120	74.2			inactive
Ir64a (Ionotropic receptor 64a)	DRSC09759	127	67.5			inactive
Ir64a (Ionotropic receptor 64a)	DRSC09760	125	74			inactive
ms(2)35Ci (male sterile (2) 35Ci)	DRSC01460	137	117			inactive
DIP-gamma (Dpr-interacting protein gamma)	DRSC14873	72.1	85.3			inactive
tbc (trabuco)	DRSC20540	177	95.2			inactive
tbc (trabuco)	DRSC23084	126	113			inactive
PSMG1 (Proteasome assembly chaperone 1)	DRSC12297	117	131			inactive
CG2652	DRSC18501	121	163	110	86.7	inactive
CG2652	DRSC22576	159	191			inactive
CG5151	DRSC10487	106	168			inactive
CG5151	DRSC23220	113	161			inactive
CG5708	DRSC02881	153	141			inactive

Targets listed so far whose target name starts with P or p:
Gene	dsRNA	calcium signal, replicate 1	calcium signal, replicate 2	retest calcium signal, replicate 1	retest calcium signal, replicate 2	call
ppk19 (pickpocket 19)	DRSC15321	139	105			inactive
PSMG1 (Proteasome assembly chaperone 1)	DRSC12297	117	131			inactive

Additional entries:
Gene	dsRNA	calcium signal, replicate 1	calcium signal, replicate 2	retest calcium signal, replicate 1	retest calcium signal, replicate 2	call
Prosalpha6T (Proteasome alpha6 subunit, Testis-specific)	DRSC02873	121	89.4			inactive
MFS9 (Major Facilitator Superfamily Transporter 9)	DRSC15560	173	220			inactive
CG9541	DRSC03257	99	105			inactive
CG13361	DRSC17896	123	140			inactive
Asx (Additional sex combs)	DRSC05924	80.1	119			inactive
Dso1 (Daisho1)	DRSC21815	165	96.6			inactive
tll (tailless)	DRSC17085	195	144			inactive
CG13324	DRSC06361	81	130			inactive
CG17048	DRSC06649	122	178			inactive
sgl (sugarless)	DRSC21431	163	117			inactive
Ndc1 (Nuclear division cycle 1)	DRSC15895	232	347			inactive
CG5280	DRSC10498	121	73.2			inactive
CG5280	DRSC22835	121	95.5			inactive
cas (castor)	DRSC12373	120	138			inactive
shf (shifted)	DRSC18283	188	123			inactive
CG32263	DRSC22431	82.4	147			inactive
bt (bent)	DRSC17129	131	109			inactive
bt (bent)	DRSC17171	122	114			inactive
trpl (transient receptor potential-like)	DRSC06728	134	210			inactive
trpl (transient receptor potential-like)	DRSC06729	63.3	120	163	65	inactive
Tmem131 (Transmembrane protein 131)	DRSC07154	122	130			inactive
CG15890	DRSC19737	116	104			inactive
CG34357	DRSC12211	96.9	103			inactive
CG34357	DRSC12238	117	146			inactive
CG34357	DRSC12334	108	149			inactive
CG34357	DRSC23031	115	186			inactive
Gcna (Germ cell nuclear acidic peptidase)	DRSC18553	87	95.5			inactive
RpL24-like (Ribosomal protein L24-like)	DRSC16111	147	141			inactive
CG31832	DRSC22067	100	247			inactive
Argk1 (Arginine kinase 1)	DRSC08959	8191	206			inactive
Argk1 (Arginine kinase 1)	DRSC09668	75.9	61			inactive
Argk1 (Arginine kinase 1)	DRSC10460	116	94.9			inactive
Argk1 (Arginine kinase 1)	DRSC21558	147	86.3			inactive
Argk1 (Arginine kinase 1)	DRSC22665	85.2	132			inactive
CG13723	DRSC10052	88.7	154			inactive
Chd64	DRSC08649	119	84.3			inactive
Peritrophin-A (Peritrophin A)	DRSC20570	142	130			inactive
GM130 (Golgi matrix protein 130 kD)	DRSC04617	134	126			inactive
CG9286	DRSC16467	91.5	88.5			inactive
CG13204	DRSC06328	128	155			inactive
CG4842	DRSC10453	107	172			inactive
CG12674	DRSC00348	88.1	147			inactive
Tango10 (Transport and Golgi organization 10)	DRSC19807	185	128			inactive
CG14126 (retired record)	DRSC10130	68.1	92.7			active
stmA (stambha A)	DRSC05120	56	60.8			active
stmA (stambha A)	DRSC07593	158	142			inactive
stmA (stambha A)	DRSC22179	108	237			inactive
CG7094	DRSC03005	96.1	120			inactive
Ref2 (RNA and export factor binding protein 2)	DRSC02563	73.7	126			active
Rnmt (RNA guanine-7 methyltransferase)	DRSC03558	74.2	88.2			inactive
Rat1 (Rat1 5'-3' exoribonuclease)	DRSC02044	91.1	139			inactive
Qsox2 (Quiescin sulfhydryl oxidase 2)	DRSC15287	116	223			inactive
CG14246	DRSC14741	128	95	5556	135	inactive
